This is one part of the list. These are further read-outs of the screen, such as a control signal, another cell line or another target. No call is given for them. Most of these compounds were active or inconclusive in the main read-out, so they are no random draw. Words in brackets tell the shape of the fitted curve; partial curves, single points and poor fits give uncertain potencies.

As a reminder, the AC50 is the concentration at which the activity in the assay is half-maximal. Read a high AC50 as weaker potency.

This test in a line: qHTS Assay for Lipid Storage Modulators in Drosophila S3 Cells.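 On cell number change: cells counted by Cell Tracker Red CMTPX staining in the red channel.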 To be noted: BODIPY lipid droplet fluorescence, 18-24 h; for cell number change: measured here: cell count max response, cells fed with added oleic acid. The method, boiled down: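 Laser-scanning cytometry quantifies lipid droplet accumulation (500–530 nm total intensity; droplet/cell object ratio) in oleic acid-fed (400 uM added) Drosophila S3 cells treated with a concentration series. 20 uM Triacsin C defined 100% inhibition.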
Background: Quantitative high-throughput screening tests each substance at several concentrations.

The mark [1] stands for this setting: measured here: cell number channel AC50, cells fed with added oleic acid.
Where [2] appears, read: measured here: lipid fluorescence (Fed channel) AC50, cells fed with added oleic acid.

On to `O=C(Nc1nnc(-c2cccs2)s1)C1CC1`, for which the cell number change is 6.16%. The half-maximal activity concentration (AC50) under setting [1] was 6.51 µM [rising, single point].

As for `CCCc1nc(SCC(=O)N2CCCc3ccccc32)c2c(=O)n(C)c(=O)n(C)c2n1`, the cell number change is 47%. The AC50 under setting [1] is 0.58 µM [rising, partial curve]. On to `CC12CCC(C(=O)NCc3ccc4c(c3)OCO4)(OC1=O)C2(C)C` (stereo unspecified), for which the cell number change was -8.07%.

For the compound `COCCc1nnc(NC(=O)Cc2ccccc2)s1`, the cell number change was -10.1%. In addition, the half-maximal activity concentration (AC50) under setting [1] is 0.103 µM [falling, full curve, poor fit]. For the same compound, the AC50 under setting [2] is 29.1 µM [falling, partial curve].

Regarding `C/C(=N\Nc1ccc(Cl)cc1)c1ccncc1`, the cell number change is 19.1%. In the case of `CCN(Cc1ccccc1)S(=O)(=O)c1ccc(OC)cc1`, the cell number change was determined as 27.7%.

As to `CC(C)(C)CC(=O)Nc1nnc(SCC(=O)NC2CCCCC2)s1`, the cell number change was -4.84%. Also, the AC50 under setting [2] is 29.1 µM [falling, single point]. Regarding `COc1ccc(OCC(=O)OCCN2C(=O)c3ccccc3C2=O)cc1`, the cell number change is 1.48%. The same measure, in the same setting: the same measure for `CC(=O)NC(CC(=O)Oc1ccc(C)cc1Br)c1ccccc1` (stereo unspecified): 7.03%. For `Cc1ccc(-c2nc3cc(Cl)ccc3o2)cc1`, the cell number change worked out at 8.52%. Also, the AC50 under setting [2] is 3.66 µM [rising, partial curve]. Turning to `Cc1cc([N+](=O)[O-])nn1CCCC(=O)NCc1ccccc1`, the cell number change amounted to 50.9%. For the same compound, under setting [1], the AC50 was 29.1 µM [rising, single point]. `C/C(=N/OC(=O)c1cccc(C(F)(F)F)c1)c1cnccn1`: the cell number change is -41.6%.

Regarding `CC(C)Cn1c(SCc2nnc(-c3cccs3)o2)nc(O)cc1=O`, the cell number change was 19.7%. As to `COc1ccc(CNC(=O)CNC(=O)c2ccc(Br)o2)cc1OC`, the cell number change turned out to be 1.17%. Also, the AC50 under setting [2] is 3.26 µM [rising, partial curve, poor fit].

In the case of `CSc1cccc(NC(=S)Nc2ccc(F)cc2)c1`, the cell number change stood at 11.1%. The half-maximal activity concentration (AC50) under setting [2] was 6.51 µM [rising, single point].

As for `C#CCN(Cc1ccccc1)S(=O)(=O)C=C`, the cell number change was 11%. Also, the AC50 under setting [2] was 0.00461 µM [rising, full curve, poor fit]. For the compound `Cc1ccccc1OCCn1nc(C(=O)O)c2ccccc2c1=O`, the cell number change was 6.81%. Under setting [2], the AC50 was 0.82 µM [rising, full curve].

As for `Cc1ccc(C)c(S(=O)(=O)N(C)C2CCS(=O)(=O)C2)c1` (stereo unspecified), the cell number change was determined as 1.41%. Consider `CCCc1[nH]nc2c1C(c1cn[nH]c1-c1ccc(F)cc1)C(C#N)=C(N)O2` (stereo unspecified), for which the cell number change is -21.6%. Further, the concentration at half-maximal activity (AC50) under setting [2] is 1.03 µM [falling, single point]. `COc1ccc(CCNC(=O)CN(c2ccc(OC)c(OC)c2)S(=O)(=O)c2ccc(C)cc2)cc1`: the cell number change is -32.5%. Besides, under setting [1], the AC50 is 0.164 µM [falling, full curve, poor fit]. `CCc1ccc(NC(=O)C2CCN(C(=O)[C@@H]3Cc4ccccc4CN3)CC2)cc1`: the cell number change was -11.6%. Besides, the AC50 under setting [2] was 20.6 µM [rising, single point]. `NC(=O)CC(NC(=O)Cc1ccc(Br)cc1)c1ccc(NC2CCC2)c([N+](=O)[O-])c1` (stereo unspecified): the cell number change stood at 7.96%. Besides, the AC50 under setting [2] was 10.3 µM [rising, partial curve]. For the compound `CNC(=O)COC(=O)/C=C/c1ccco1`, the cell number change was -1.58%. As to `COc1ccccc1N1CCN(/N=C/c2ccc([N+](=O)[O-])cc2)CC1`, the cell number change is -49%. Besides, the AC50 under setting [1] was 16.4 µM [falling, partial curve, poor fit]. Further, the AC50 under setting [2] was 20.6 µM [falling, partial curve]. As for `COc1ccc(Sc2nc3ccccc3n3c(C(F)(F)F)nnc23)cc1`, the cell number change was -10.3%. For the same compound, under setting [2], the AC50 is 0.00517 µM [falling, full curve, poor fit].

For `Cc1ccc(C)c2sc(NC(=O)c3ccc(N4C(=O)CCC4=O)cc3)nc12`, the half-maximal activity concentration (AC50) under setting [2] was 1.46 µM [rising, full curve].

As for `COc1ccccc1NC(=O)CSc1nncn1-c1ccccc1`, the cell number change is -26.9%. In addition, under setting [1], the AC50 is 0.0291 µM [falling, full curve, poor fit].

Regarding `O=C(CSc1nc(C2CC2)nc2ccccc12)Nc1ccccc1N1CCOCC1`, the cell number change was -13.3%. The AC50 under setting [1] was 6.51 µM [falling, single point]. In addition, the half-maximal activity concentration (AC50) under setting [2] was 6.51 µM [falling, partial curve]. On to `CC(C)(C)C(=O)NC(Nc1cccc2cccnc12)C(Cl)(Cl)Cl` (stereo unspecified), for which the cell number change is 5.59%. Under setting [2], the AC50 is 6.51 µM [falling, partial curve]. As for `CCCNC(=S)N1CCN(C(c2ccccc2)c2ccccc2)CC1`, the cell number change was found to be 27.5%. Also, under setting [2], the AC50 is 14.6 µM [rising, partial curve].

With `CO/C(N)=C(\C#N)N=Cc1ccccc1Cl`, the cell number change amounted to 34.2%. Also, under setting [1], the concentration at half-maximal activity (AC50) is 18.4 µM [rising, single point]. For the same compound, the AC50 under setting [2] is 20.6 µM [rising, single point]. In the case of `CC1(C)CNC(=O)c2sc(N3CCOCC3)nc2C1`, the cell number change is -53.2%. Also, the AC50 under setting [1] was 29.1 µM [falling, single point]. Also, the AC50 under setting [2] is 29.1 µM [falling, single point]. On to `Cc1ccc(-c2noc(CSc3nnnn3C3CCCCC3)n2)cc1`, for which the cell number change came out at 10.7%. For the same compound, under setting [1], the concentration at half-maximal activity (AC50) is 2.06 µM [rising, partial curve]. For the same compound, under setting [2], the AC50 was 29.1 µM [rising, single point]. As to `CSc1ccccc1-n1nnnc1SCC(=O)Nc1ccccc1C`, the concentration at half-maximal activity (AC50) under setting [1] was 0.13 µM [rising, full curve]. In the case of `Cc1nccn1CC(=O)N/N=C/c1ccccc1O`, the cell number change was 12.2%. Also, under setting [2], the AC50 was 0.259 µM [falling, partial curve, poor fit].

For `COc1ccc(NC(=S)Nc2ccc(F)cc2)cc1`, the cell number change was -15%. Under setting [2], the AC50 was 10.3 µM [falling, partial curve]. Take `COCCCn1c(=O)/c(=C\c2ccccc2OC(F)F)s/c1=C(/C#N)C(N)=O`: the cell number change worked out at 18.3%. In addition, the AC50 under setting [2] was 0.326 µM [rising, full curve, poor fit]. For the compound `CCN(Cc1ccccc1)C(=O)Cn1c(=O)n(CCC(=O)N2CCCCC2)c(=O)c2sccc21`, the cell number change is -26.3%.

As to `CC1=C(C(=O)OCc2ccccc2)C(c2cccnc2)c2c(n(C)c(=O)n(C)c2=O)N1` (stereo unspecified), the cell number change was -16.2%. Moreover, the AC50 under setting [2] was 16.4 µM [falling, partial curve, poor fit]. Take `Cc1c(OCC(=O)NC2CC(C)(C)NC(C)(C)C2)ccc2c3c(c(=O)oc12)CCC3`: the AC50 under setting [2] is 25.9 µM [rising, partial curve].

In the case of `COc1cc(/C=C2\CC/C(=C\c3cc(OC)c(OC)c(OC)c3)C2=O)cc(OC)c1OC`, the cell number change was 48.2%. Also, the half-maximal activity concentration (AC50) under setting [1] was 6.51 µM [falling, single point]. Moreover, the AC50 under setting [2] was 6.51 µM [rising, single point].
